No constants are given. Whether binding was seen depends on the method and setting. Binding seen in cells or lysates may run through a third protein. For some assays here: Binding calls can cover weak binding; strength is not graded here. For some assays here: Tags and fused reporters may be left off the sequences shown.
B1: HA-FilGAP (protein, UniProt Q8N264-1 1-748)
chain: MEENNDSTENPQQGQGRQNAIKCGWLRKQGGFVKTWHTRWFVLKGDQLYYFKDEDETKPLGTIFLPGNKVSEHPCNEENPGKFLFEVVPGGDRDRMTANHESYLLMASTQNDMEDWVKSIRRVIWGPFGGGIFGQKLEDTVRYEKRYGNRLAPMLVEQCVDFIRQRGLKEEGLFRLPGQANLVKELQDAFDCGEKPSFDSNTDVHTVASLLKLYLRELPEPVIPYAKYEDFLSCAKLLSKEEEAGVKELAKQVKSLPVVNYNLLKYICRFLDEVQSYSGVNKMSVQNLATVFGPNILRPKVEDPLTIMEGTVVVQQLMSVMISKHDCLFPKDAELQSKPQDGVSNNNEIQKKATMGQLQNKENNNTKDSPSRQCSWDKSESPQRSSMNNGSPTALSGSKTNSPKNSVHKLDVSRSPPLMVKKNPAFNKGSGIVTNGSFSSSNAEGLEKTQTTPNGSLQARRSSSLKVSGTKMGTHSVQNGTVRMGILNSDTLGNPTNVRNMSWLPNGYVTLRDNKQKEQAGELGQHNRLSTYDNVHQQFSMMNLDDKQSIDSATWSTSSCEISLPENSNSCRSSTTTCPEQDFFGGNFEDPVLDGPPQDDLSHPRDYESKSDHRSVGGRSSRATSSSDNSETFVGNSSSNHSALHSLVSSLKQEMTKQKIEYESRIKSLEQRNLTLETEMMSLHDELDQERKKFTMIEIKMRNAERAKEDAEKRNDMLQKEMEQFFSTFGELTVEPRRTERGNTIWIQ

Sequences of proteins named here, by UniProt entry; tags and fusion partners are left off. A change or cut given only in a name is not applied to a line headed by its entry.
UniProt Q7Z5H3: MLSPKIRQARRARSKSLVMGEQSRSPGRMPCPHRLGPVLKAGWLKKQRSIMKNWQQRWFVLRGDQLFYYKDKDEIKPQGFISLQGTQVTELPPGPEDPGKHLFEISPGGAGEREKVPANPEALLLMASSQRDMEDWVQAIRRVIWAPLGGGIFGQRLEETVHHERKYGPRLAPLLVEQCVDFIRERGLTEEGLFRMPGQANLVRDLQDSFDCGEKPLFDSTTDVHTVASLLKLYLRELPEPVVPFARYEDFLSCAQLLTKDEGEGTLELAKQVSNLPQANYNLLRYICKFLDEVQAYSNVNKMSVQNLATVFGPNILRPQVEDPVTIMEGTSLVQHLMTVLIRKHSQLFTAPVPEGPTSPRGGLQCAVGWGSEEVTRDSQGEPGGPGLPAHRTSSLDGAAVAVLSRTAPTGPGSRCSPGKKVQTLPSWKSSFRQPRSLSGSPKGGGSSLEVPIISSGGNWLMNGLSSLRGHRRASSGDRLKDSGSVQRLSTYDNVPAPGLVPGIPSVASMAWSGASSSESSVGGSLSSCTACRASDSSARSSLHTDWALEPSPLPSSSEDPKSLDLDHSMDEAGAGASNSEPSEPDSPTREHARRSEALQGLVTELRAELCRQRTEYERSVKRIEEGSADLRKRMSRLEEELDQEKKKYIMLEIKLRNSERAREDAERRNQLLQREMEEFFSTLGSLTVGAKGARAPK
UniProt P21333: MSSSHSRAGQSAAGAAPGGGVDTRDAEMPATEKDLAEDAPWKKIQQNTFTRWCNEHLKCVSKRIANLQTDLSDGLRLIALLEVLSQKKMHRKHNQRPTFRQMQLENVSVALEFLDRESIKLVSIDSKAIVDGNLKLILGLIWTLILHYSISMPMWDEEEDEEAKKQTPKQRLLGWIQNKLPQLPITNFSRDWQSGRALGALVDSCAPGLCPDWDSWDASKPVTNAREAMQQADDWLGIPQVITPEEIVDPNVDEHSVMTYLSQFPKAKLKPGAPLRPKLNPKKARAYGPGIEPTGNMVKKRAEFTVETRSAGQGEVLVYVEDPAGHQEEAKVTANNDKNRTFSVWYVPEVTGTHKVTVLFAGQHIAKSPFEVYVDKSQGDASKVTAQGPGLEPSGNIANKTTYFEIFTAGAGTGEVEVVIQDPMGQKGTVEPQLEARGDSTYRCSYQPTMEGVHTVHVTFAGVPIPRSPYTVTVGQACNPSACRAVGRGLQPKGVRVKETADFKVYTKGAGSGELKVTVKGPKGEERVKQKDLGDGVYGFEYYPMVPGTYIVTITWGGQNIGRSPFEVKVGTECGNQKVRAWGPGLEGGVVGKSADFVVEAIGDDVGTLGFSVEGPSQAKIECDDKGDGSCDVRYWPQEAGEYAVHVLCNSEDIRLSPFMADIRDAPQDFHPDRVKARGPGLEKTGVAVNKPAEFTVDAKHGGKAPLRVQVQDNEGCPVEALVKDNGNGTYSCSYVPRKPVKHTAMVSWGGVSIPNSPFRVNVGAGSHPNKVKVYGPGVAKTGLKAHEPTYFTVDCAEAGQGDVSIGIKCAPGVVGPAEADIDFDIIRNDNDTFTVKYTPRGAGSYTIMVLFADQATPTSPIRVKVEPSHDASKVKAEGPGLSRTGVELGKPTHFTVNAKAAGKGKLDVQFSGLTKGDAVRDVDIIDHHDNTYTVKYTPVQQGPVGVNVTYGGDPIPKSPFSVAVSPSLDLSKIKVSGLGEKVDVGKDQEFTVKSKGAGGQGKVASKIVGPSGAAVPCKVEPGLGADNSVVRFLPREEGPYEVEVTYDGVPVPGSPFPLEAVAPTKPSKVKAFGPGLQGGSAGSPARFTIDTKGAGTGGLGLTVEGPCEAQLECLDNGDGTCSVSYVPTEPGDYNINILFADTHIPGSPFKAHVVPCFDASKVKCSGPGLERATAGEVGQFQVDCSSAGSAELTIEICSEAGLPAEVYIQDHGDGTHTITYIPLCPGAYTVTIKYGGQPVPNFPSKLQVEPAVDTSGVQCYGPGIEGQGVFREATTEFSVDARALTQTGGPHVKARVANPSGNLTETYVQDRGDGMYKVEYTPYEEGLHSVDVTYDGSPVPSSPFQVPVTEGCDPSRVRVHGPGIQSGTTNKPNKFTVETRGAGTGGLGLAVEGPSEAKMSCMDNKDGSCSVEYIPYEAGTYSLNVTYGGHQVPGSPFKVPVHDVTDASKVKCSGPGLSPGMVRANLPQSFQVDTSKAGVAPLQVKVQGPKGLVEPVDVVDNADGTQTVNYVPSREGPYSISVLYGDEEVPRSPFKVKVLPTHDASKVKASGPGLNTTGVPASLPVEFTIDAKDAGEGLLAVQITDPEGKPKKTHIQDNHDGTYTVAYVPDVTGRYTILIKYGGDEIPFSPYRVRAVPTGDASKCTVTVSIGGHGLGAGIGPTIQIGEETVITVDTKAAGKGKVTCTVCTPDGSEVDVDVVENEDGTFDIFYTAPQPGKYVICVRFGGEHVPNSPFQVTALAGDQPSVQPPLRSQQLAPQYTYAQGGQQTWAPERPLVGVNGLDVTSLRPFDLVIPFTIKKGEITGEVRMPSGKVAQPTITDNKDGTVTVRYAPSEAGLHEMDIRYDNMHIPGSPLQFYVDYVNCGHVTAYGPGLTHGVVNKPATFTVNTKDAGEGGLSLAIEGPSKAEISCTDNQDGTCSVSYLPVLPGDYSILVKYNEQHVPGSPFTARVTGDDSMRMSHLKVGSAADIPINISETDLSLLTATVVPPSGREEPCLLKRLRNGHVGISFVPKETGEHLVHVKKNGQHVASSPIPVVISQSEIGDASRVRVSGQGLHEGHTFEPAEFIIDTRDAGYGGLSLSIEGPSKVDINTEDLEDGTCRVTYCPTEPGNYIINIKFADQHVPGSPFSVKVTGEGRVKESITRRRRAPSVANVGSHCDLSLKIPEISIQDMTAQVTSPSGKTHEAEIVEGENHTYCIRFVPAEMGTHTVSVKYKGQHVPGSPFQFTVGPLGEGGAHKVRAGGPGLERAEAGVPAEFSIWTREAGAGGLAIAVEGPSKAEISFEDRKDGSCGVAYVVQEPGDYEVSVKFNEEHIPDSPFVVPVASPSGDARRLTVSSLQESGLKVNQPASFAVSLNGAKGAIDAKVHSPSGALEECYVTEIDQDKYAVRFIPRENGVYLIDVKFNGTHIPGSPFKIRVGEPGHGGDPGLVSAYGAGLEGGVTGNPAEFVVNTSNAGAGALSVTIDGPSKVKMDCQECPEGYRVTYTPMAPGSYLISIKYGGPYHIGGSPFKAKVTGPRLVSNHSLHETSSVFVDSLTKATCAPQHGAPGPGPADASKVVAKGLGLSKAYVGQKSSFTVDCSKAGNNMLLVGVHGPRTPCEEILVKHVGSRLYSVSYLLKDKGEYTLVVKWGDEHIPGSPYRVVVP

What was measured:
[1] = biological target: HA-tagged full length ARHGAP22 (human) (UniProt Q7Z5H3); assay: co-IP; HEK cells transfected with HA-ARHGAP22 or HA-FilGAP; immunoprecipitated from cell extracts with anti-HA agarose; endogenous FLNa detected by immunoblot with anti-FLNa antibody
GST-FLNa-Repeat 23–24 = assay: pull-down; extracts of HEK cells transfected with HA-ARHGAP22 or HA-FilGAP incubated with GST-FLNa-Repeat 23–24 and glutathione-Sepharose 4B, 1 h at 4°C; 50 mM Tris-HCl pH 7.5, 100 mM NaCl, 0.1% NP-40, 5 mM MgCl2, 5 mM EGTA, 1 mM DTT; immunoblot with anti-HA; only the target purified

binding [1]	binding (GST-FLNa-Repeat 23–24)	Molecule
no binding		Filamin A (from UniProt P21333 1-2647)
	binds	B1
